Measured values as given in patent US20050186587A1, “Method for screening a substance which can suppress degradation of a nuclear receptor or a substance which can promote degradation of a nuclear receptor” (Interite, Inc., priority 2004, published 2005).
These are yes or no findings as the source states them, for the method shown. In cells and extracts the contact can be indirect. Some entries that bind do so weakly or less than the wild type.

Sequences of proteins named here, by UniProt entry; tags and fusion partners are left off. A change or cut given only in a name is not applied to a line headed by its entry. Residues count along the entry.
UniProt P03372, residues 251-595: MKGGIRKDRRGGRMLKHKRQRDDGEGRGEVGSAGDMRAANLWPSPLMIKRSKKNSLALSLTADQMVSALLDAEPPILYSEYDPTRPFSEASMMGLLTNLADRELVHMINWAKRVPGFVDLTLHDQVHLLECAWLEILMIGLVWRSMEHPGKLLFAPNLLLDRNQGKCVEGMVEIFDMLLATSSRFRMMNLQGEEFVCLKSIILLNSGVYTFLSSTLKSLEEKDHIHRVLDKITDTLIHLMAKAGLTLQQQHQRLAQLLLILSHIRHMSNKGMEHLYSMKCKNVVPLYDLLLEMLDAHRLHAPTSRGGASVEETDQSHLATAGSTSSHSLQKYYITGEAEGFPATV
UniProt P11142: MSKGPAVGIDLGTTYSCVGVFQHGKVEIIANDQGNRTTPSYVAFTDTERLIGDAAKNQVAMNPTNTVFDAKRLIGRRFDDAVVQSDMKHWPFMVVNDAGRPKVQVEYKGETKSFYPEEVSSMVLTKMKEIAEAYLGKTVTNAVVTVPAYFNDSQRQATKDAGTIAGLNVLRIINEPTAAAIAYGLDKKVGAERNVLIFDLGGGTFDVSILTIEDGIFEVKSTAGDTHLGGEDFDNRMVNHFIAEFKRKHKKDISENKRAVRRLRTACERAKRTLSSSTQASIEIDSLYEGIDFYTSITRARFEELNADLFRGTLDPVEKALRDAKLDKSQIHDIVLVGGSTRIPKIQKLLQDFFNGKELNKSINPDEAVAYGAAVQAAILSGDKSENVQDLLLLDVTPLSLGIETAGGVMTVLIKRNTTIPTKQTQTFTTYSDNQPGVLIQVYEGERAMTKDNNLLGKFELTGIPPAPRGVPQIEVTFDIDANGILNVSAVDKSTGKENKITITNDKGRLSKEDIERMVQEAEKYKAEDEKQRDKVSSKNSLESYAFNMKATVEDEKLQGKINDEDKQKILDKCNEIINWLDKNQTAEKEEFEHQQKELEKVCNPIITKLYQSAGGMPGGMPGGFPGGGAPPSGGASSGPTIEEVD

Target: fused protein of GST and the ligand-binding domain of ERα (UniProt P03372)
Test: GST pull-down on glutathione sepharose beads fixed with GST-ERα ligand-binding domain, SDS-PAGE, MALDI-TOF fingerprint

Hsc70 (heat shock protein isolated from HeLa cell raw nucleus extract) (from UniProt P11142 2-646)
binding: binds
